In EP2446883A1 one finds binding data, which are given here for 1 substance.

Chains of the proteins cited; added tags and fusions are not shown.
UniProt Q04206: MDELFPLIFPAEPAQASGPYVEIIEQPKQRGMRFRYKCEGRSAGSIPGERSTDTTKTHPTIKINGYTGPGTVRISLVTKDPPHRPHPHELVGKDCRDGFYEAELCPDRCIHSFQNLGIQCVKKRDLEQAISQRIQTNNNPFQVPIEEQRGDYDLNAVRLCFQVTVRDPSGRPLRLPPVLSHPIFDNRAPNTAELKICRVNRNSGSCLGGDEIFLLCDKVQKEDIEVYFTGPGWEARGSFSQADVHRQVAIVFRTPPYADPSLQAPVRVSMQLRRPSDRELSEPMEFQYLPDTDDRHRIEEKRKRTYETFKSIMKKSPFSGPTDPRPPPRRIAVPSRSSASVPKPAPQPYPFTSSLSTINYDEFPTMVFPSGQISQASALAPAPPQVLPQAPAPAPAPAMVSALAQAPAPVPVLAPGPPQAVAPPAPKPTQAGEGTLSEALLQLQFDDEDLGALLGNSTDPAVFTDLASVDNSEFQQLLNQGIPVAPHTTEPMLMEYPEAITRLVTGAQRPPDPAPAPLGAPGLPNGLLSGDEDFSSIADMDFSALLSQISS
UniProt Q93009: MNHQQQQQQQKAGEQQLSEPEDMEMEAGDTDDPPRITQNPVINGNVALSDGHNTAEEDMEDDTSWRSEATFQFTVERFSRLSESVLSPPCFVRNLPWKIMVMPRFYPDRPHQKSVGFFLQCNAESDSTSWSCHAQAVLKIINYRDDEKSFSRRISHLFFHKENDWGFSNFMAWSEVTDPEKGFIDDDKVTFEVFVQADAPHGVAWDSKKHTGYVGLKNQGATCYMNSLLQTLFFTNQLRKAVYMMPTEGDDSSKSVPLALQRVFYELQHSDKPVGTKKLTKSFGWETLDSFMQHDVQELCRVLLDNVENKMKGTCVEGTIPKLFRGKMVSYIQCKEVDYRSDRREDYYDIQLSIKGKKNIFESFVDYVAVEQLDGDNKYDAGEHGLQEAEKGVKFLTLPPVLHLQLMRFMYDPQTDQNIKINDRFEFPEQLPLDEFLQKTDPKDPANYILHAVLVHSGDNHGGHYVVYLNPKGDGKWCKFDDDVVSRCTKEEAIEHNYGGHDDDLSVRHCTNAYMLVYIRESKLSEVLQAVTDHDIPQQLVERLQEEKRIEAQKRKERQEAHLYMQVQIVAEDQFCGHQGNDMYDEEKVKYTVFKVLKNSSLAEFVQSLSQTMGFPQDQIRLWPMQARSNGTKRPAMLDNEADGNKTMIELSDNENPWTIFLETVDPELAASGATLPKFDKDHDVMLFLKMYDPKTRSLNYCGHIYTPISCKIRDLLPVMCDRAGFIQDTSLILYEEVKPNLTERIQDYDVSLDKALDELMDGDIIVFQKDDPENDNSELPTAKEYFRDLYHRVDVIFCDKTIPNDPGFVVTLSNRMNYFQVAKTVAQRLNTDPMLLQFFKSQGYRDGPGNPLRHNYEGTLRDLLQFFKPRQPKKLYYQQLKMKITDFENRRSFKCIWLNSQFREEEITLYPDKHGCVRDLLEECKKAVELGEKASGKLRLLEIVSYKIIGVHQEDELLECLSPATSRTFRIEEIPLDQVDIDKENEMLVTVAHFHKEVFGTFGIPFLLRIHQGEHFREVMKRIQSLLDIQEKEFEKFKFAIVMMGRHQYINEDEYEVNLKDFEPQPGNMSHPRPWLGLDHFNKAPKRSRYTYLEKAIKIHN

Assay [1] addresses NF-κB subunit RelA/p65, expressed from a vector in HEK293 cells (UniProt Q04206). Kind of assay: co-immunoprecipitation from transfected HEK293T cells (anti-RelA/p65 IP, anti-FLAG blot).
Assay [2] has the same target. Briefly: co-immunoprecipitation from transfected HEK293 cells.

Results are given in words; binding and its absence hold for the method and conditions named. Binding seen in cells or lysates may run through a third protein. Some binding calls cover weakened binding; strength is not graded here.

Turning to “FLAG-tagged USP7 (Ubiquitin Serine Protease 7), expressed from a vector in HEK293 cells (from UniProt Q93009 1-1102) (enzyme)”, the binding result in assay [1] and in assay [2] was “binds” throughout.
